Assay results reported in the supplement of paper PMC8256030.
Several values for one entry are separate records, joined by “and”; a condition that tells them apart may be missing. Identical values can stand only once. The list shows a part of the results. This data set is noisy: repeats of one test often differ as much as different tests do.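 HEK293T cells were given each compound shortly before transfection with a reporter in which red mCherry is followed by the SARS-CoV-2 frameshift element and then GFP in the −1 frame, so GFP appears only after frameshifting.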

Key:
[1] = test system: SARS-CoV-2 -1 PRF reporter mCherry-FSE-GFP(-1); assay: mCherry (red) intensity as percent of control; higher = higher upstream reporter expression; conditions: 10 µM; 24 h; HEK293T
[2] = test system: SARS-CoV-2 -1 PRF reporter mCherry-FSE-GFP(-1); assay: percent effect, decrease of GFP/mCherry ratio (-1 PRF reporter) relative to controls; higher = stronger frameshift inhibition; conditions: 10 µM; 24 h; HEK293T

Structure (SMILES)	mCherry [1]	percent effect [2]
CC(C)Cc1ccc(CC(=O)O)cc1 [ibufenac]	106%	-0.849%
O=c1n(CCCN2CCN(c3cccc(Cl)c3)CC2)nc2ccccn12 [trazodone]	129%	0.925%
O=C1CN(/N=C/c2ccc([N+](=O)[O-])o2)C(=O)N1 [nitrofurantoin]	99.5% and 87.2%	-1.31% and -1.77%
CCCCCCCCCCCCCCC[C@H](O)[C@@H](N)CO [safingol]	107%	-2.2%
CCN(CC)C(=O)c1cccc(C)c1	117%	-1.46%
CCO/C([O-])=N/c1c[n+](N2CCOCC2)no1	151%	1.35%
CNCCCC1(c2ccccc2)OC(C)(C)c2ccccc21 (stereo not drawn) [talopram]	122%	-3.45%
CC(C)C(N)C(=O)O (stereo not drawn)	111%	-2.35%
NC[C@H]1O[C@H](O[C@H]2[C@H](O)[C@@H](O[C@H]3O[C@H](CO)[C@@H](O)[C@H](N)[C@H]3O)[C@H](N)C[C@@H]2N)[C@H](N)[C@@H](O)[C@@H]1O	123%	-6.53%
CCN(CC)CCNc1ccc(C)c2sc3ccccc3c(=O)c12 [lucanthone]	53.6%	-7.69%
Nc1ccc(S(=O)(=O)NC(=O)c2ccccc2)cc1 [sulfabenzamide]	88.6%	-5.77%
CC(=O)N(CC(O)CO)c1c(I)c(C(=O)NCC(O)CO)c(I)c(C(=O)NCC(O)CO)c1I (stereo not drawn) [iohexol]	111%	-1.37%
CC1(C)S[C@@H]2[C@H](NC(=O)COc3ccccc3)C(=O)N2[C@H]1C(=O)O [Pencillin V]	79.4%	-4.57%
Cc1nnc(C(=O)NC(C)(C)c2nc(C(=O)NCc3ccc(F)cc3)c(O)c(=O)n2C)o1 [Raltegravir]	90%	-7.55%
CCC(=O)c1ccc(O)cc1 [paroxypropione]	98.7%	-0.277%
Cc1nc2n(c(=O)c1CCN1CCC(c3noc4cc(F)ccc34)CC1)CCCC2 [risperidone]	104% and 83.4%	-3.68% and -2.89%
COc1ccc(-c2nc3cc(C4=NNC(=O)CC4C)ccc3[nH]2)cc1 (stereo not drawn) [pimobendan]	123%	-12.9%
Cc1onc(NS(=O)(=O)c2ccc(N)cc2)c1C [sulfatroxazole]	64.2%	-1.1%
C[C@H](C#Cc1ccc(Cc2ccc(F)cc2)s1)N(O)C(N)=O [atreleuton]	55.8%	-4.18%
O=C(O)CCCc1ccccc1 [Sodium Phenylbutyrate]	105%	-0.546%

Structure (SMILES)	mCherry [1]	percent effect [2]
CC1(C)S[C@@H]2[C@H](NC(=O)[C@H](NC(=O)N3CCN(S(C)(=O)=O)C3=O)c3ccccc3)C(=O)N2[C@H]1C(=O)O [Mezlin]	115%	-5.09%
CN1[C@@H]2CC[C@H]1C[C@@H](OC(c1ccccc1)c1ccccc1)C2 [Cogentin]	101% and 113%	-8.05% and -3.24%
Cc1nc2ccccc2n1Cc1ccc(Cl)cc1 [chlormidazole]	103%	-9.6%
Cc1cnc(C(=O)NCCc2ccc(S(=O)(=O)NC(=O)NC3CCCCC3)cc2)cn1 [Glipizide]	111%	-1.73%
O=C(O)c1cc(-c2ccc(F)cc2F)ccc1O [diflunisal]	98.3% and 78.4%	-2.83% and -8.8%
Cc1cc(NC(=O)C2=C(O)c3ccccc3S(=O)(=O)N2C)no1	108%	2.37%
Cc1cc(=O)n(-c2ccccc2)n1C	70.8%	-5.35%
C[C@@H]1C[C@H]2[C@@H]3C[C@H](F)C4=CC(=O)C=C[C@]4(C)[C@H]3[C@@H](O)C[C@]2(C)[C@H]1C(=O)CO [fluocortolone]	65.3%	-3.26%
C=CCc1cc(OC)c(O)c(C(=O)NCCO)c1 [alibendol]	90.2%	-4.58%
CC(C)Nc1ncccn1 [isaxonine]	82.7%	2.22%
Fc1ccc(Cn2c(NC3CCNCC3)nc3ccccc32)cc1 [tecastemizole]	62.3%	-1.75%
CCOc1ccc(/N=N/c2ccc(N)cc2N)cc1 [etoxazene]	88.5%	4.56%
CN1CCc2cccc3c2[C@H]1Cc1ccc(O)c(O)c1-3	123%	0.121%
NS(=O)(=O)c1cc2c(cc1C(F)(F)F)NC(Cc1ccccc1)NS2(=O)=O (stereo not drawn) [bendroflumethiazide]	110%	0.319%
CC(C(=O)O)c1ccc2c(c1)[nH]c1ccc(Cl)cc12 (stereo not drawn) [carprofen]	94.6%	-2.4%
NC(=O)[C@H]1O[C@@H](O)[C@H](O)[C@@H](O)[C@@H]1O [glucuronamide]	78.8%	-6.02%
CC(=O)CC(c1ccccc1)c1c(O)c2ccccc2oc1=O (stereo not drawn) [warfarin]	112%	-3.5%
CC1(C)C[C@@H]1C(=O)N/C(=C\CCCCSC[C@H](N)C(=O)O)C(=O)O [Cilastatin]	103%	0.249%
NS(=O)(=O)NCc1ccccc1 [benzylsulfamide]	119%	-4.12%
